Data taken from publication PMC12637224.
Results are given in words; binding and its absence hold for the method and conditions named. For some of these results: In cells and extracts the contact can be indirect. Some results given as binding are weak or reduced against the parent protein; the word gives no strength. For some of these results: Sequences can lack the tags named with a protein.

Sequences of proteins named here, by UniProt entry; tags and fusion partners are left off. A change or cut given only in a name is not applied to a line headed by its entry. A line that says so, or that is headed by a name, gives the form on record, which may keep a tag or linker.
UniProt P20701: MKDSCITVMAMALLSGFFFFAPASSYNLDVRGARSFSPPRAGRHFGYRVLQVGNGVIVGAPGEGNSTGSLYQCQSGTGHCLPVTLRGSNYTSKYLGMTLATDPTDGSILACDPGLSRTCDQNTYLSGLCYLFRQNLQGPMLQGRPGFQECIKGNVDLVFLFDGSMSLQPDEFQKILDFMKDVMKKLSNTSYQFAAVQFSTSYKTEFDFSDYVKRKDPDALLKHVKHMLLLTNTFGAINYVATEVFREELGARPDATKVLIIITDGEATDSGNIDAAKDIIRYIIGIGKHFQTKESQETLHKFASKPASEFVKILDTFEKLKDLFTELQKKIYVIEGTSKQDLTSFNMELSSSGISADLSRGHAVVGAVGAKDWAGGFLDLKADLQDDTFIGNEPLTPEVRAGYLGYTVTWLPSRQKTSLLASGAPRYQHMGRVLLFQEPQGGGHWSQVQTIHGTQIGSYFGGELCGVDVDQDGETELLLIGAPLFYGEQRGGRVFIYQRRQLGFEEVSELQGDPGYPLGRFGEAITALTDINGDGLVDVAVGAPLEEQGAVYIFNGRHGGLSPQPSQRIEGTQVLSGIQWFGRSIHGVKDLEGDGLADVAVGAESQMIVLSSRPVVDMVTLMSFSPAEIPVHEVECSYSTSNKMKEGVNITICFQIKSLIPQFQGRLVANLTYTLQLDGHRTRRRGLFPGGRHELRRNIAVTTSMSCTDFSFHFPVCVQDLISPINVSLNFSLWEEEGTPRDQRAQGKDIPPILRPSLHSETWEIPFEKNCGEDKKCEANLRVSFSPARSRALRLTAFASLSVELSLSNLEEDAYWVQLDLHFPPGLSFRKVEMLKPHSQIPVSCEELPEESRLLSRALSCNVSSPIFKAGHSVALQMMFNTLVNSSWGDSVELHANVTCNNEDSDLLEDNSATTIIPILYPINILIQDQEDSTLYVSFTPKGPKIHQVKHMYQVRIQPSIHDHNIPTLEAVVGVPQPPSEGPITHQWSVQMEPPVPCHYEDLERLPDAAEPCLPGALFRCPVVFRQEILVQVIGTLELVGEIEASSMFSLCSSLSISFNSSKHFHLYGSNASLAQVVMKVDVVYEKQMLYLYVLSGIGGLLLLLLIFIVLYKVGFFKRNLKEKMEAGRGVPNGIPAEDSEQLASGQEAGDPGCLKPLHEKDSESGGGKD
GST-β2-KQDS (GST-fused human β2 cytoplasmic tail with NND replaced with KQDS) (P05107, form named): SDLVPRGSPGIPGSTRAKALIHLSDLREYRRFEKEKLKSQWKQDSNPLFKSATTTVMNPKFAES
GST-β2-CT (GST-fused human integrin β2 cytoplasmic tail) (P05107, form named): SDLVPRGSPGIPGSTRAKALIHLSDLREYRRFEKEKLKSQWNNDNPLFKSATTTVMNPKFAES
UniProt Q00651: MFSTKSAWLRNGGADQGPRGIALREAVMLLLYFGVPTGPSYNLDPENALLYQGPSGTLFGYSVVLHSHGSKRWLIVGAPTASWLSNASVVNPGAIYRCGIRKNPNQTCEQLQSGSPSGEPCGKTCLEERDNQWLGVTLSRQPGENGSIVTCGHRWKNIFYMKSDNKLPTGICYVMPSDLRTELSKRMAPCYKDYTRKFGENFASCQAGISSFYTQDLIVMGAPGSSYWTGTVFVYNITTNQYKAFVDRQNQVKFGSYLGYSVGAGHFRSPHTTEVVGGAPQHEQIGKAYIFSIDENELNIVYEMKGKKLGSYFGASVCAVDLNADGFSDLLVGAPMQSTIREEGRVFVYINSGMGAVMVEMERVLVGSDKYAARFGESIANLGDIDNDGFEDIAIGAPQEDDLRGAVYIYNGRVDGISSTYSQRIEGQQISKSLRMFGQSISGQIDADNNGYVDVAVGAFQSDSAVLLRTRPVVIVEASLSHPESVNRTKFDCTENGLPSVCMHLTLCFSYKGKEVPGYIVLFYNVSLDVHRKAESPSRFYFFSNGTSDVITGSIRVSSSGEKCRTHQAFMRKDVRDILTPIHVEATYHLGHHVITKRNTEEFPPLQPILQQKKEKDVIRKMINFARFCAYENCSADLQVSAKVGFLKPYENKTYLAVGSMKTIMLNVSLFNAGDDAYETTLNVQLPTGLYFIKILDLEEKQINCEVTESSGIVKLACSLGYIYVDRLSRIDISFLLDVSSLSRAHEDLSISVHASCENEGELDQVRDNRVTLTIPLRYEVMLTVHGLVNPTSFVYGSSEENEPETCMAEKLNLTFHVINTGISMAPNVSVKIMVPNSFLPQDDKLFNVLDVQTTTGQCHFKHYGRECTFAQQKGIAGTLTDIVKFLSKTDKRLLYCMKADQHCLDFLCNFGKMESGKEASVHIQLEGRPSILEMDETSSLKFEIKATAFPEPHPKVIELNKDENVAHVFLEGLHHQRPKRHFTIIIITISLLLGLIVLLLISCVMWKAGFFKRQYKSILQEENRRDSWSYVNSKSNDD
UniProt P11835: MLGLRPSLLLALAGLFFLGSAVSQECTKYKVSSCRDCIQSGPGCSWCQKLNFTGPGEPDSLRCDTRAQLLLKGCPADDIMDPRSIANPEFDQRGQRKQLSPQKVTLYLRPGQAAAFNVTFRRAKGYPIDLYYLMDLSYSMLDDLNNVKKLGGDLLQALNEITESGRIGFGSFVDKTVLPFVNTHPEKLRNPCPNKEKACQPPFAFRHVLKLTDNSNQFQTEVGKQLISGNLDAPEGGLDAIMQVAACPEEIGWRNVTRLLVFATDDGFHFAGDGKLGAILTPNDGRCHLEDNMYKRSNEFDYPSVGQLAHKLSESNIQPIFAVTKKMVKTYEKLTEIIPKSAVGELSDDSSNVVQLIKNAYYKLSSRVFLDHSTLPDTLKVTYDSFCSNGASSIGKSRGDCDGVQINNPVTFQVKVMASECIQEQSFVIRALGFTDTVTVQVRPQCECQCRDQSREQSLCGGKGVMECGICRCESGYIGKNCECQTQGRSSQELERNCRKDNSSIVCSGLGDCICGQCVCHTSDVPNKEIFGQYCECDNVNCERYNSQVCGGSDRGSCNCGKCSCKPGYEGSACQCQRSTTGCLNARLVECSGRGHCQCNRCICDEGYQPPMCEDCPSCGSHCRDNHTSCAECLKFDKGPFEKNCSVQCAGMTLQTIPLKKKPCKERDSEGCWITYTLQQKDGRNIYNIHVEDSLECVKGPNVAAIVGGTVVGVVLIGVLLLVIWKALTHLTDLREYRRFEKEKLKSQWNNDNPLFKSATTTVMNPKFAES
UniProt O54890: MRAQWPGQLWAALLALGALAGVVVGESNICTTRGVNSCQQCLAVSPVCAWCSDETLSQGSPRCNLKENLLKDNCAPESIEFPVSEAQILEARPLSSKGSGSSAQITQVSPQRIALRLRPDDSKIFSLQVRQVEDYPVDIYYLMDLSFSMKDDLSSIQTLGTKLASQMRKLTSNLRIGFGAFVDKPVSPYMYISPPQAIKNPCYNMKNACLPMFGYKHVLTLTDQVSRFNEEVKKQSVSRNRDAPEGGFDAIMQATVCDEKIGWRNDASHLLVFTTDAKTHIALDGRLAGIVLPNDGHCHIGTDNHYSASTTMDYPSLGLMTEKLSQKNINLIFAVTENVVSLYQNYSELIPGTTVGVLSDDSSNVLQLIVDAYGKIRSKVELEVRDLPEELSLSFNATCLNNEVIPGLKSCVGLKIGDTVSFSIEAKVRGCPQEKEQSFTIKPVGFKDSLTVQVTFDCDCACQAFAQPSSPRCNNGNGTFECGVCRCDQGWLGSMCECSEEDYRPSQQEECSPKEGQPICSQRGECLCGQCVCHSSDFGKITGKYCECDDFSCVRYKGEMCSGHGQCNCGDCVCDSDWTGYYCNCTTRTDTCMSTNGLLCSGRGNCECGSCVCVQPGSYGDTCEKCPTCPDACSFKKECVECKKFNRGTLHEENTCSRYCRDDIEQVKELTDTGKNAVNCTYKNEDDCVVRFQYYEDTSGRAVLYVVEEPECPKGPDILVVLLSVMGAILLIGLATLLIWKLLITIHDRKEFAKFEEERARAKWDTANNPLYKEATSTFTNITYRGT
GST-β3-CT (GST-fused human integrin β3 cytoplasmic tail) (P05106, form named): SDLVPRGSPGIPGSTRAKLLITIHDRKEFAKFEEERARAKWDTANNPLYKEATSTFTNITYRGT
UniProt P26039: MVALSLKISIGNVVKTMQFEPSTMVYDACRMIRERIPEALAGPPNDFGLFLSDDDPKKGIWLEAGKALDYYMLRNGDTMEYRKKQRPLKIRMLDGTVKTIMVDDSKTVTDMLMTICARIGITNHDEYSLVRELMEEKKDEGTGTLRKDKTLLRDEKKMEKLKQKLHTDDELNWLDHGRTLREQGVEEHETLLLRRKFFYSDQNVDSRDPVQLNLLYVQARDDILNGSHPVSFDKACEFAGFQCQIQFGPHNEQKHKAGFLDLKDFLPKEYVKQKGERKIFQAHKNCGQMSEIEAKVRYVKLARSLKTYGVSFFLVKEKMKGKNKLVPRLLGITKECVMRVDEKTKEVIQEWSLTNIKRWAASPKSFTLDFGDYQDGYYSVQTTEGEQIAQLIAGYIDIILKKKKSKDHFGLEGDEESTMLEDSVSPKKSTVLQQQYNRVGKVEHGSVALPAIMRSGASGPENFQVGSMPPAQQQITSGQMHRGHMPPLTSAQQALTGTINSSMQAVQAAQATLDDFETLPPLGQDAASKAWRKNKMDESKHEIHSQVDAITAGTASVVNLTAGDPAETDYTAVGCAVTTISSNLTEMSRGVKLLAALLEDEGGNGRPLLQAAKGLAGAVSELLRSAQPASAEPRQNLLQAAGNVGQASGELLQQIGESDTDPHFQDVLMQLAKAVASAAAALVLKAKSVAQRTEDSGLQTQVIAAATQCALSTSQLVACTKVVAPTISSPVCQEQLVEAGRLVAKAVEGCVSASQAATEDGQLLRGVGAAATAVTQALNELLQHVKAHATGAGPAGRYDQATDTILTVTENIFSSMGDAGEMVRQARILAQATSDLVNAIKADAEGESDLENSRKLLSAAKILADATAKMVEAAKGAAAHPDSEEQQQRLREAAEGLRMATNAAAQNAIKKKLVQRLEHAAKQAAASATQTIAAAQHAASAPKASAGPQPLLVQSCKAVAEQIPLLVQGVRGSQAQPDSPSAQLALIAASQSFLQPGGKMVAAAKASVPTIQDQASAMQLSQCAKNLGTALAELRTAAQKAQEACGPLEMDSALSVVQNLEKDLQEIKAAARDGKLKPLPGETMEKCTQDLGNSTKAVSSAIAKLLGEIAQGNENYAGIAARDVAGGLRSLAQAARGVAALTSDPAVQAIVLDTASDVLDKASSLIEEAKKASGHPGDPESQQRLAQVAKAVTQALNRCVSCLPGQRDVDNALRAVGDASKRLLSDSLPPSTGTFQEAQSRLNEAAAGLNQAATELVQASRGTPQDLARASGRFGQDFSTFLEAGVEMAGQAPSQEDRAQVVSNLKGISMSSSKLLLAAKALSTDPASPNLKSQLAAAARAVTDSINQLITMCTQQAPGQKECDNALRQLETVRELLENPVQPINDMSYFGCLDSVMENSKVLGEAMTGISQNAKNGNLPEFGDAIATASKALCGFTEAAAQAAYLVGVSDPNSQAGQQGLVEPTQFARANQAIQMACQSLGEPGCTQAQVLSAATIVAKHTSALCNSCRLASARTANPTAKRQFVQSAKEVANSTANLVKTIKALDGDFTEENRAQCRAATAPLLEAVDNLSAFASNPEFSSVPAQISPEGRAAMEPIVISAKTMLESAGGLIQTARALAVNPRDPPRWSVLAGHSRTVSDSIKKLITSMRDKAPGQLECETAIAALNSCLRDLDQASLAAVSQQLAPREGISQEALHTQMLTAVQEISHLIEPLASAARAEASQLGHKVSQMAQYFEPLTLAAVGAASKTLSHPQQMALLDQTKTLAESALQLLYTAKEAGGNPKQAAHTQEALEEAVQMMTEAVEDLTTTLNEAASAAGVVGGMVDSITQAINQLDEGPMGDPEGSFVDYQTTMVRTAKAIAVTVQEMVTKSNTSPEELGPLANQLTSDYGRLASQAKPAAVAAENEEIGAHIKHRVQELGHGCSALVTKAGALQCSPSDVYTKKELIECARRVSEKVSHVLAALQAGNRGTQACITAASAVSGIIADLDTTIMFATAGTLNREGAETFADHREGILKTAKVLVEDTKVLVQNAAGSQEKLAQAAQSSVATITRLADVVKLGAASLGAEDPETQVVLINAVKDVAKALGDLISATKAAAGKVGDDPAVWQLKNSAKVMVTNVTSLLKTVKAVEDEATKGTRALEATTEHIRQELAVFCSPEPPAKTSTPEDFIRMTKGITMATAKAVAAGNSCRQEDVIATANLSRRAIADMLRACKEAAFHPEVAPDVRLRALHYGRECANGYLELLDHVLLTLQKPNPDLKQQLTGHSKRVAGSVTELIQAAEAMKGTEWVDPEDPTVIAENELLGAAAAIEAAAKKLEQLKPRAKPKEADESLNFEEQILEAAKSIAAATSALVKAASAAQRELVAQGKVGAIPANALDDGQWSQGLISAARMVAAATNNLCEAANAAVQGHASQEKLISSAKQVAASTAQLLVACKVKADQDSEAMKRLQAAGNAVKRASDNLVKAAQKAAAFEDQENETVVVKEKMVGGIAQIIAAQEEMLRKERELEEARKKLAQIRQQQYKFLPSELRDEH

Assays:
[1] = molecular target: αL/β2-KQDS (NND of the β2 WN linker replaced with KQDS of β7) (human) (UniProt P20701+P05107); experiment: single-molecule particle tracking by total internal reflection microscopy in live cells; BAF/LFA1 cells expressing HT-talin1 and intact, chimeric or mutant LFA1, on hICAM1-coated dishes, with PMA (without PMA for αL-ΔGFFKR cells); binding frequency and binding time from trajectories >0.2 s
[2] = molecular target: αL/β2-N749A (human) (UniProt P20701+P05107); experiment: as above
[3] = molecular target: intact LFA1 (αL/β2) expressed in BAF/LFA1 cells (human) (UniProt P20701+P05107); experiment: as above
[4] = molecular target: α4/β7 integrin, endogenous on mouse primary T cells (mouse (endogenous in mouse T cells)) (UniProt Q00651+P26011); experiment: single-molecule particle tracking by total internal reflection microscopy in live cells; primary T cells from HT-talin1 knock-in mice (naive; activated with retinoic acid; Th2-skewed), HT-talin1 labelled with HT SaraFluor 650T Ligand, cells on dishes coated with 10 μg/ml ICAM1, MAdCAM1 or PECAM1 with 100 ng/ml PMA; poly-L-lysine as ligand-free control; binding frequency, binding time and koff from trajectories >0.2 s
[5] = molecular target: LFA1 (αL/β2 integrin), endogenous on mouse primary T cells (mouse (endogenous in mouse T cells)) (UniProt P24063+P11835); experiment: as above
[6] = molecular target: αV/β3 integrin, endogenous on mouse primary T cells (mouse (endogenous in mouse T cells)) (UniProt P43406+O54890); experiment: as above
[7] = molecular target: T1, GST-β7-CT (GST-fused human integrin β7 cytoplasmic tail) (human) (UniProt P26010); experiment: pull-down; GST-integrin-CT preimmobilized on Glutathione Sepharose beads, mixed with lysates of 293T cells expressing myc-tagged talin1 FERM, 1 h at 4 °C; washed with 30 mM Tris–HCl, 150 mM NaCl, 1 mM EDTA, 0.15% Triton X-100, pH 7.5; Western blotting; only the target purified
T1 sequence: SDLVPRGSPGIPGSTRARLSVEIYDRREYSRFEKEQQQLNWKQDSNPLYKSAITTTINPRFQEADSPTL

[8] = molecular target: GST-β2-KQDS (GST-fused human β2 cytoplasmic tail with NND replaced with KQDS) (human) (UniProt P05107); experiment: as above
[9] = molecular target: GST-β3-CT (GST-fused human integrin β3 cytoplasmic tail) (human) (UniProt P05106); experiment: as above
[10] = molecular target: GST-β2-CT (GST-fused human integrin β2 cytoplasmic tail) (human) (UniProt P05107); experiment: as above

Measured: binding

HaloTag-fused talin1 (HT-talin1) expressed in BAF/LFA1 cells (from UniProt P26039 1-2541)
binds: [1] | [2] | [3]

HaloTag-fused talin1 (HT-talin1), endogenous knock-in in mouse primary T cells (from UniProt P26039 1-2541)
binds: [4] | [5] | [6]

myc-tagged talin1 FERM domain (from UniProt P26039 86-403) (domain or fragment)
binds: [7] | [8] | [9] | [10]
